Experimental data: article PMC2215330
These are yes or no findings as the source states them, for the method shown. Binding seen in cells or lysates may run through a third protein.

Target: EBV-Z (wild type, from expression plasmid) (Epstein-Barr virus) (UniProt P03206)
Experiment: co-IP

## K-RTA-DLR (K-RTA with deletion of the leucine heptapeptide repeat region) (from UniProt F5HCV3 1-691)
  binding: no binding
